Laboratory results published in PMC4668369.
These are yes or no findings as the source states them, for the method shown. Binding seen in cells or lysates may run through a third protein. Some binding calls cover weakened binding; strength is not graded here. For some assays here: Sequences can lack the tags named with a protein.

Amino acid sequences for entries named in this document (tags omitted).
UniProt K9N643: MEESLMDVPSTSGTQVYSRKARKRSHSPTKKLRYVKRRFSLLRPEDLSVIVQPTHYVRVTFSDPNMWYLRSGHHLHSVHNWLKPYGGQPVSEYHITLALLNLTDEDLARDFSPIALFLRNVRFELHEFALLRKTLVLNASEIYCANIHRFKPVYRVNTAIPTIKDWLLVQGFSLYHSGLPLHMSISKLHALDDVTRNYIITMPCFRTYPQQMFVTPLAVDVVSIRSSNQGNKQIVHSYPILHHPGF

Experiments:
[1] = molecular target: Flag-MDA-5C (amino-terminal CARD domain of MDA5, aa 1–287) (UniProt Q9BYX4); assay: co-IP
[2] = molecular target: T1, Flag-MDA-5H (carboxyl terminal helicase domain of MDA5, aa 287–1025) (UniProt Q9BYX4); assay: co-IP
T1 sequence: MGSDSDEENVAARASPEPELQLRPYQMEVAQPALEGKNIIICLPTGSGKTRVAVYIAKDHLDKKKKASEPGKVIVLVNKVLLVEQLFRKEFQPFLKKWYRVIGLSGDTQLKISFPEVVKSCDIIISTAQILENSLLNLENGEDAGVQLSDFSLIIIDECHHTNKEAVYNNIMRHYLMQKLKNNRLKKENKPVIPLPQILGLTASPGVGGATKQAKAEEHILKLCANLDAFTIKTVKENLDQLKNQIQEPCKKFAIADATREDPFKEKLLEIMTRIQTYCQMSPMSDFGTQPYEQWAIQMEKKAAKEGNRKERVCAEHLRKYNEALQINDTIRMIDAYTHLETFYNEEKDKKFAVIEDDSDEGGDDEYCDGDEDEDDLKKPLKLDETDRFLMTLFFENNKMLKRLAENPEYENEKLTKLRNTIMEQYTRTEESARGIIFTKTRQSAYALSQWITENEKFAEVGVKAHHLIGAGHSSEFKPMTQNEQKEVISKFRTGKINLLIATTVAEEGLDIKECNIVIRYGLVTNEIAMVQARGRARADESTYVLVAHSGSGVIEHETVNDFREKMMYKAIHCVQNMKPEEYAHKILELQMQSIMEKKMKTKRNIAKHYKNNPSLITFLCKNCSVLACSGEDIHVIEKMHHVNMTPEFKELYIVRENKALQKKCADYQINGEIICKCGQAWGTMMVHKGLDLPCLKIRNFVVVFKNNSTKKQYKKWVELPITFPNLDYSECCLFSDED

With “MERS-CoV ORF4b protein, HA-tagged (from UniProt K9N643 1-246)” the binding [1] was “binds” and the binding [2] was “binds”.
